What all share (assay): cryo-EM structure
The target in test [1] is T1, ribosomal protein uS7 of A. baumannii (Acinetobacter baumannii ATCC BAA1605 (endogenous in the strain)) (UniProt A3M305).
T1 sequence: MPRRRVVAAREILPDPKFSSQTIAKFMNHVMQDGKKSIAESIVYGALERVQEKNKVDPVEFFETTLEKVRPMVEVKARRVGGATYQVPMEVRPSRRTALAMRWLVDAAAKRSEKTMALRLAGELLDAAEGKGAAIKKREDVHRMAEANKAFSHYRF

Test [2] deals with T2, ribosomal protein uS7 of P. aeruginosa (Pseudomonas aeruginosa PA14 (endogenous in the strain)) (UniProt B7V640).
T2 sequence: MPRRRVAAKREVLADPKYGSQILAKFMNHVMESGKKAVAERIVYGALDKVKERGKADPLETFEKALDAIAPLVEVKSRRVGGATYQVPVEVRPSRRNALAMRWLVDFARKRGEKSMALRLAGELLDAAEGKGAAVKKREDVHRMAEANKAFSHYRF

In test [3] the target is T3, ribosomal protein uS9 of P. aeruginosa (Pseudomonas aeruginosa PA14 (endogenous in the strain)) (UniProt B7UZL0).
T3 sequence: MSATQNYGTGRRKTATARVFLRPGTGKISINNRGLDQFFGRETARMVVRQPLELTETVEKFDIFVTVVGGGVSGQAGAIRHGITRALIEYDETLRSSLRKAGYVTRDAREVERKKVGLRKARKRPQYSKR

No constants are given. Whether binding was seen depends on the method and setting. Binding calls can cover weak binding; strength is not graded here.

The results in this text go back to doi:10.1101/2025.10.07.680626.

Take hibernation factor YfiA of A. baumannii: the binding result in test [1] was “binds”. On to “hibernation-promoting factor HPF (short form) of P. aeruginosa (from UniProt A0A071L218)”, for which the binding entry in test [2] and in test [3] was “binds” throughout.
